Among the data in article PMC4848882 are binding values, retold here.

Protein sequences, listed by entry. Tags and fused reporters are not part of them. Lines headed by an entry give the natural chain unless they say otherwise; changes in a name come on top. Chains listed by the source or under a name are the forms on record and can include a tag or linker. Residues count along the entry.
UniProt P61073: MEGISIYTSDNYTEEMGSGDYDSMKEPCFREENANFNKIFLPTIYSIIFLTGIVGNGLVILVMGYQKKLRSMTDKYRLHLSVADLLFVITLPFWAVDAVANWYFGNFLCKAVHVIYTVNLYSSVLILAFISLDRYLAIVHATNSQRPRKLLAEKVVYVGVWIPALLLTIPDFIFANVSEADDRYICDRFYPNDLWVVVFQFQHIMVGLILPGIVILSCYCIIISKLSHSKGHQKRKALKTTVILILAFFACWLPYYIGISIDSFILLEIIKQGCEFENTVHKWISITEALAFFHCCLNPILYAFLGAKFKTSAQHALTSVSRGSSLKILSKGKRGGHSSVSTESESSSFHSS
Flag-tagged human RTN3-RHD deletion mutant (pCMV-Flag-hRTN3-RHD) (O95197, residues 844-1032): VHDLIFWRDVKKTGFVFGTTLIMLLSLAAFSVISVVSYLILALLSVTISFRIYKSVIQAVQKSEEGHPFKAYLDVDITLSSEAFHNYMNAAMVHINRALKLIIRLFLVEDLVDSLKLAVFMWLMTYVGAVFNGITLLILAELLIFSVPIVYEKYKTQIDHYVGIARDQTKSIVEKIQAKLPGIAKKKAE
RTN3 fragment containing amino acid residues 86 to 236 (clone from a human fetal liver cDNA library in pACT2) (O95197, residues 882-1032): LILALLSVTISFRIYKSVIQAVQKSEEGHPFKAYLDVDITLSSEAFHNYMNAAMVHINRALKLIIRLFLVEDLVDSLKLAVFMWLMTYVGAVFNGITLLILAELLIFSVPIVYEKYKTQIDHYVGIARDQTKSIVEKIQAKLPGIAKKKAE
Flag-tagged full-length human RTN3 (pCMV-Flag-hRTN3) (O95197-3, form named): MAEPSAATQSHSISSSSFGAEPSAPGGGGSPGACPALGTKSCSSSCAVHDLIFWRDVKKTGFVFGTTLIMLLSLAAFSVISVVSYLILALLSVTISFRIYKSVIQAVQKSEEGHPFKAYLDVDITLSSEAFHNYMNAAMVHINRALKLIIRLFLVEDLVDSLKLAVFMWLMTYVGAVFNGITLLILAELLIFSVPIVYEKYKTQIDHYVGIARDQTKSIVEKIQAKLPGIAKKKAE

No constants are given. Whether binding was seen depends on the method and setting. For some of these results: In cells and extracts the contact can be indirect. Some entries that bind do so weakly or less than the wild type.

In assay [1] the target is Myc-tagged human CXCR4 (pcDNA3.1-Myc-hCXCR4) (human) (UniProt P61073). Description: co-IP; HEK293 cells co-transfected; lysis in RIPA buffer (25 mM Tris-HCl pH 7.5, 150 mM NaCl, 1% NP-40, 0.5% sodium deoxycholate); immunoprecipitation with anti-Myc agarose overnight at 4 °C, control IgG; immunoblot. Background: Immunoblotting shows a protein as a band on a membrane.
Assay [2] has as its target Flag-tagged full-length human RTN3 (pCMV-Flag-hRTN3) (human) (UniProt O95197). Description: co-IP; reverse co-IP: HEK293 cells co-transfected; lysis in RIPA buffer; immunoprecipitation with anti-Flag M2 affinity gel overnight at 4 °C, control IgG; immunoblot.
For assay [3], the target named is human full-length CXCR4 fused to the GAL4 DNA-binding domain (pGBKT7-hCXCR4) (human) (UniProt P61073). Description: two-hybrid; yeast AH109 with pGBKT7-hCXCR4 as bait; screen of a human fetal liver cDNA library in the GAL4 activation domain vector pACT2.

For “Flag-tagged human RTN3-RHD deletion mutant (pCMV-Flag-hRTN3-RHD) (from UniProt O95197-3 48-236) (domain or fragment)”, the binding result in assay [1] is “binds”.
As for “Myc-tagged human CXCR4 (pcDNA3.1-Myc-hCXCR4) (from UniProt P61073 1-352) (receptor)”, the binding entry in assay [2] is reported as “binds”.
For “Flag-tagged full-length human RTN3 (pCMV-Flag-hRTN3) (from UniProt O95197-3 1-236)”, in assay [1], the binding entry is reported as “binds”.
On to “RTN3 fragment containing amino acid residues 86 to 236 (clone from a human fetal liver cDNA library in pACT2) (from UniProt O95197-3 86-236) (domain or fragment)”, for which the binding entry in assay [3] is listed as “binds”.
